Results are given in words; binding and its absence hold for the method and conditions named. In cells and extracts the contact can be indirect. For some of these results: Binding calls can cover weak binding; strength is not graded here. For some of these results: Tags and fused reporters may be left off the sequences shown.

For assay [1], the target named is T1, gliding-associated protein GAP45 (Toxoplasma gondii (endogenous in tachyzoites)) (UniProt Q7Z289).
T1 sequence: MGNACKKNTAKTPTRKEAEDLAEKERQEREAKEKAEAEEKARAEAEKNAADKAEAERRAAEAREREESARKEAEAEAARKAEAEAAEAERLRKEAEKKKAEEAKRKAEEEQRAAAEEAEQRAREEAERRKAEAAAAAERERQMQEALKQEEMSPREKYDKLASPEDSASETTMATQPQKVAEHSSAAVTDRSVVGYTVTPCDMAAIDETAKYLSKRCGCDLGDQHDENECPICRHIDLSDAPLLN
Put plainly: co-IP; polyclonal anti-GAP45 antibodies on [35S]-labelled GAP80-KO tachyzoites, Triton X-100 lysate, autoradiography.

Assay [2] has as its target T1, gliding-associated protein GAP45 (Toxoplasma gondii (endogenous in tachyzoites)). Put plainly: condition: only in Ku80-KO parasites, where GAP80 is present; co-IP; polyclonal anti-GAP45 antibodies on [35S]-labelled Ku80-KO tachyzoites (GAP80 present), Triton X-100 lysate, autoradiography.
In assay [3] the target is T2, GAP45Ty (second copy of GAP45 with a Ty tag) (Toxoplasma gondii) (UniProt Q7Z289).
T2 sequence: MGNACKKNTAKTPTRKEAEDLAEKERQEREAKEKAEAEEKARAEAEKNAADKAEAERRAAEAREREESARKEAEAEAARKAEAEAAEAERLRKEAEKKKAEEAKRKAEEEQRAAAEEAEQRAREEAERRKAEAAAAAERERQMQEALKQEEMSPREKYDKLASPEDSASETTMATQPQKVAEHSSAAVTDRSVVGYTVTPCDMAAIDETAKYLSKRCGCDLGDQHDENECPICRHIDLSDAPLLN
Nature of the assay: co-IP; [35S]-methionine/cysteine labelled tachyzoites lysed in CoIP buffer (1% Triton X-100, 50 mM Tris-HCl pH 8, 150 mM NaCl); tagged bait precipitated with monoclonal anti-Ty or anti-Myc and Protein A-Sepharose, 4 C; eluted proteins seen by autoradiography; also in MyoC-KO background and in GAP45-iKO +/- ATc.

Assay [4] deals with KI-MyoC-3Ty (MyoC C-terminally tagged at the endogenous locus) (Toxoplasma gondii). Described as above.

For myosin C (MyoC), the binding result in assay [1] is “binds”; in assay [2], “no binding”; in assay [3], “no binding”.

B1: gliding-associated protein GAP45 (protein, UniProt Q7Z289 1-245)
chain: MGNACKKNTAKTPTRKEAEDLAEKERQEREAKEKAEAEEKARAEAEKNAADKAEAERRAAEAREREESARKEAEAEAARKAEAEAAEAERLRKEAEKKKAEEAKRKAEEEQRAAAEEAEQRAREEAERRKAEAAAAAERERQMQEALKQEEMSPREKYDKLASPEDSASETTMATQPQKVAEHSSAAVTDRSVVGYTVTPCDMAAIDETAKYLSKRCGCDLGDQHDENECPICRHIDLSDAPLLN
For B1, the binding result in assay [4] is reported as “no binding”.

Values taken from publication PMC4231161.
